Experimental data: paper PMC9114808
No constants are given. Whether binding was seen depends on the method and setting. In cells and extracts the contact can be indirect. These calls come from enrichment with a bait or labelling near it, and not all partners need be listed. Sequences can lack the tags named with a protein.

Sequences of proteins named here, by UniProt entry; tags and fusion partners are left off.
UniProt P15105: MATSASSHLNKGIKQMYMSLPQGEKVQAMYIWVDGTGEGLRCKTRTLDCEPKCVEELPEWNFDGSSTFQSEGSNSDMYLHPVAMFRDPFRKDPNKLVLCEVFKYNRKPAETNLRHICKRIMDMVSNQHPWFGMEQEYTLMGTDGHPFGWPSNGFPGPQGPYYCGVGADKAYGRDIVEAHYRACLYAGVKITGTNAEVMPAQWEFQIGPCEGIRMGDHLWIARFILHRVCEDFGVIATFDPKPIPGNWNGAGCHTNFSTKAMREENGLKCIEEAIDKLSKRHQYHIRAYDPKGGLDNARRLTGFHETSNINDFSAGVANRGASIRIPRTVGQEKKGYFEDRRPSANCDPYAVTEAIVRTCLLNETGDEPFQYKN
UniProt P62774: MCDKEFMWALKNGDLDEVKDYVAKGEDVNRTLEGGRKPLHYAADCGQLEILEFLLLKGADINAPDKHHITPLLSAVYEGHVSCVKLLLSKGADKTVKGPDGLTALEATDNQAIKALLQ
UniProt Q9JJV2: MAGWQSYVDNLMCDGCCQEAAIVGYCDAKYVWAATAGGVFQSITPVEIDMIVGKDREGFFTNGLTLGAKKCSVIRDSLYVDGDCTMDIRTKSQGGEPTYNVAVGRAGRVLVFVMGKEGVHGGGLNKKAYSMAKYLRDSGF
UniProt P09405: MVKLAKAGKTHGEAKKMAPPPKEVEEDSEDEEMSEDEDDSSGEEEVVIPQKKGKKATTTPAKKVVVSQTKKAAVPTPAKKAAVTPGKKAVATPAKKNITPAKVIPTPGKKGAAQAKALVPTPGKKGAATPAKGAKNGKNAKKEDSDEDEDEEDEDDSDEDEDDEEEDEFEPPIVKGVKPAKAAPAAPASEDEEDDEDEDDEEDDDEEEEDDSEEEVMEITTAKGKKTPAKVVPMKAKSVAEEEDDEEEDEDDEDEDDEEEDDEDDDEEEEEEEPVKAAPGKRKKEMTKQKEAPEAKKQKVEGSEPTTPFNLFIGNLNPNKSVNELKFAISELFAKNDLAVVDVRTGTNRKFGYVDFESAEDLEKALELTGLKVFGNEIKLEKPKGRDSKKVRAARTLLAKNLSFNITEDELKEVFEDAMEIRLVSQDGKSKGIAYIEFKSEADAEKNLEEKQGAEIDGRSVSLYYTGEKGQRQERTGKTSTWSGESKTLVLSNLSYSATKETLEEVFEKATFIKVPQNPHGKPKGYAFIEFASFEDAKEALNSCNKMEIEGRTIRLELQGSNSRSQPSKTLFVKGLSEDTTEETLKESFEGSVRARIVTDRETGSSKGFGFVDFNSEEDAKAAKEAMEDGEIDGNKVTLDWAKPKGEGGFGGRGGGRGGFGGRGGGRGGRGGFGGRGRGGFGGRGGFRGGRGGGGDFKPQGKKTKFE
UniProt P51880: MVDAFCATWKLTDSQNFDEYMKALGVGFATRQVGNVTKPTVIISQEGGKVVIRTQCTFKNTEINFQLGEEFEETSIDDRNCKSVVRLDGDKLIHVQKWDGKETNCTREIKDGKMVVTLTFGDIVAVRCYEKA
UniProt Q62093: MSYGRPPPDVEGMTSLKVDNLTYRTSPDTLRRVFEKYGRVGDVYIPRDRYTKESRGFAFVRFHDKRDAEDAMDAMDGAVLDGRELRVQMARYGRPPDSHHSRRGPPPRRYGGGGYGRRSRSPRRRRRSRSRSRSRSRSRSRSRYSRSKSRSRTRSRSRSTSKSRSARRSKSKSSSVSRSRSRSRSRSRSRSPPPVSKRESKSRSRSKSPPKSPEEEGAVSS
UniProt P63101: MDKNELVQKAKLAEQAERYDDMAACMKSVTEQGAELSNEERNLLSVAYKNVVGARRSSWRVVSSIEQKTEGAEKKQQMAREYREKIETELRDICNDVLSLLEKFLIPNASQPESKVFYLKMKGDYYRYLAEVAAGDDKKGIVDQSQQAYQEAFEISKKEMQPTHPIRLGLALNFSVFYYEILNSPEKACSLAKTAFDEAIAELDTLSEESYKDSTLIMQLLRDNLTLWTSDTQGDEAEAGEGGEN
UniProt P62320: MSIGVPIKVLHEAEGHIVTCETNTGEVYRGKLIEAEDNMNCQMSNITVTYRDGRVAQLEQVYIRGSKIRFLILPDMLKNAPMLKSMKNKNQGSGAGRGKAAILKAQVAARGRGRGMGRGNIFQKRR
UniProt Q9CZ30: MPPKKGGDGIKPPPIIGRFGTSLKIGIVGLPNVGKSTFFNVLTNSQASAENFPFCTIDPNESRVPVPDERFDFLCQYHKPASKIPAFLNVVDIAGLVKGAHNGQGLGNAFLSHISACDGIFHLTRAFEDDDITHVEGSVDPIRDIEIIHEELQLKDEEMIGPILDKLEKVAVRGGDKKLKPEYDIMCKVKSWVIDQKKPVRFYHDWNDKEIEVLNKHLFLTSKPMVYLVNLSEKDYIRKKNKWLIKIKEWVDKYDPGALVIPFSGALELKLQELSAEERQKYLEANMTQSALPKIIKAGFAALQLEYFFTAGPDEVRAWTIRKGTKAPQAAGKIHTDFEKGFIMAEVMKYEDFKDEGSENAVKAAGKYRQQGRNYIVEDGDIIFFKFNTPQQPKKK
UniProt Q9EQU5: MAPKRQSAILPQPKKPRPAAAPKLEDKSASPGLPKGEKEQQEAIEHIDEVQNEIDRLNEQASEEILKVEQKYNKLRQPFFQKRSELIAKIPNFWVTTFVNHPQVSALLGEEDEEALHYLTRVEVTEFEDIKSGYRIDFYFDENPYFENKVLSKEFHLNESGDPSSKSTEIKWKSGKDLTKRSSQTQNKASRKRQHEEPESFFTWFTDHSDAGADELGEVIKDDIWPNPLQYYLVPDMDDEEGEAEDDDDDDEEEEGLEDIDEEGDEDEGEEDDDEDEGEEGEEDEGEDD
UniProt P18760: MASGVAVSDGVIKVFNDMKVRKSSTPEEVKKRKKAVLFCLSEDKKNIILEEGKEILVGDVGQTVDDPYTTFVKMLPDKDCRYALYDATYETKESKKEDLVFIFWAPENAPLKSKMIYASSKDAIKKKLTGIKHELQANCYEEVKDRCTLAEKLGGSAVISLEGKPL
UniProt Q04447: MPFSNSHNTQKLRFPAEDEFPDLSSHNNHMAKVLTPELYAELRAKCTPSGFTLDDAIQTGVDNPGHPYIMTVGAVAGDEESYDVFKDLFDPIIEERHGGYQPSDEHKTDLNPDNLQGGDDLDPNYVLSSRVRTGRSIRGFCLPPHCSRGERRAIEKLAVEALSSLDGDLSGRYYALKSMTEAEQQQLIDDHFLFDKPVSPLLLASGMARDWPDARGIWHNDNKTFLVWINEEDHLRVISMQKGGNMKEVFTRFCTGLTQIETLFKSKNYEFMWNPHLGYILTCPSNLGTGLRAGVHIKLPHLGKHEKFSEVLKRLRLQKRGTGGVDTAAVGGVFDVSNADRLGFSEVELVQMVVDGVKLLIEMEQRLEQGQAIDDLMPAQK
UniProt P63280: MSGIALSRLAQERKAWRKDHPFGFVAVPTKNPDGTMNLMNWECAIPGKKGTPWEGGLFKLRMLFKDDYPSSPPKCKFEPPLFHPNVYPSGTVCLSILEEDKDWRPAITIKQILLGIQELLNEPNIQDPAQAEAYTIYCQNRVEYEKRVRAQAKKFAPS
UniProt P17742: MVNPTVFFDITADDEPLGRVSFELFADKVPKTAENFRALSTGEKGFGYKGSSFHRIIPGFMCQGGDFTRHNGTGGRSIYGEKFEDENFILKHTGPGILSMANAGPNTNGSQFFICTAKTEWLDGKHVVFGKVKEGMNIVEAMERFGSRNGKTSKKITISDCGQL

T1: Sept7 C-terminal tail peptide, residues 416-438, phosphorylated at T426 (UniProt Q16181)
T1 sequence (peptide, phosphothreonine at T426): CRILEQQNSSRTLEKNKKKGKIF

B1: 14-3-3 protein gamma (protein, UniProt P61982 1-247)
chain: MVDREQLVQKARLAEQAERYDDMAAAMKNVTELNEPLSNEERNLLSVAYKNVVGARRSSWRVISSIEQKTSADGNEKKIEMVRAYREKIEKELEAVCQDVLSLLDNYLIKNCSETQYESKVFYLKMKGDYYRYLAEVATGEKRATVVESSEKAYSEAHEISKEHMQPTHPIRLGLALNYSVFYYEIQNAPEQACHLAKTAFDDAIAELDTLNEDSYKDSTLIMQLLRDNLTLWTSDQQDDDGGEGNN
B2: Translationally-controlled tumor protein (protein, UniProt P63028 1-172)
chain: MIIYRDLISHDELFSDIYKIREIADGLCLEVEGKMVSRTEGAIDDSLIGGNASAEGPEGEGTESTVVTGVDIVMNHHLQETSFTKEAYKKYIKDYMKSLKGKLEEQKPERVKPFMTGAAEQIKHILANFNNYQFFIGENMNPDGMVALLDYREDGVTPFMIFFKDGLEMEKC
B3: NEDD8-conjugating enzyme Ubc12 (enzyme, UniProt P61082 1-183)
chain: MIKLFSLKQQKKEEESAGGTKGSSKKASAAQLRIQKDINELNLPKTCDISFSDPDDLLNFKLVICPDEGFYKSGKFVFSFKVGQGYPHDPPKVKCETMVYHPNIDLEGNVCLNILREDWKPVLTINSIIYGLQYLFLEPNPEDPLNKEAAEVLQNNRRLFEQNVQRSMRGGYIGSTYFERCLK
B4: ADP/ATP translocase 1 (protein, UniProt P48962 1-298)
chain: MGDQALSFLKDFLAGGIAAAVSKTAVAPIERVKLLLQVQHASKQISAEKQYKGIIDCVVRIPKEQGFLSFWRGNLANVIRYFPTQALNFAFKDKYKQIFLGGVDRHKQFWRYFAGNLASGGAAGATSLCFVYPLDFARTRLAADVGKGSSQREFNGLGDCLTKIFKSDGLKGLYQGFSVSVQGIIIYRAAYFGVYDTAKGMLPDPKNVHIIVSWMIAQSVTAVAGLVSYPFDTVRRRMMMQSGRKGADIMYTGTLDCWRKIAKDEGANAFFKGAWSNVLRGMGGAFVLVLYDEIKKYV
B5: 14 kDa phosphohistidine phosphatase (enzyme, UniProt Q9DAK9 1-124)
chain: MAADLGQIPDVDIDSDGVFKYVLIRVHLAEPSGDPAKECKEIVRGYKWAEYHADIYDKVSGELQRNGYDCECLGGGRISHQSQDRKIHVYGYSMGYGRAQHSVSTEKIKAKYPDYEVTWADDGY
B6: Aconitate hydratase, mitochondrial (enzyme, UniProt Q99KI0 28-780)
chain: QRAKVAMSHFEPSEYIRYDLLEKNINIVRKRLNRPLTLSEKIVYGHLDDPANQEIERGKTYLRLRPDRVAMQDATAQMAMLQFISSGLPKVAVPSTIHCDHLIEAQVGGEKDLRRAKDINQEVYNFLATAGAKYGVGFWRPGSGIIHQIILENYAYPGVLLIGTDSHTPNGGGLGGICIGVGGADAVDVMAGIPWELKCPKVIGVKLTGSLSGWTSPKDVILKVAGILTVKGGTGAIVEYHGPGVDSISCTGMATICNMGAEIGATTSVFPYNHRMKKYLSKTGRTDIANLAEEFKDHLVPDPGCQYDQVIEINLNELKPHINGPFTPDLAHPVADVGTVAEKEGWPLDIRVGLIGSCTNSSYEDMGRSAAVAKQALAHGLKCKSQFTITPGSEQIRATIERDGYAQILRDVGGIVLANACGPCIGQWDRKDIKKGEKNTIVTSYNRNFTGRNDANPETHAFVTSPEIVTALAIAGTLKFNPETDFLTGKDGKKFKLEAPDADELPRSDFDPGQDTYQHPPKDSSGQRVDVSPTSQRLQLLEPFDKWDGKDLEDLQILIKVKGKCTTDHISAAGPWLKFRGHLDNISNNLLIGAINIENGKANSVRNAVTQEFGPVPDTARYYKKHGIRWVVIGDENYGEGSSREHAALEPRHLGGRAIITKSFARIHETNLKKQGLLPLTFADPSDYNKIHPVDKLTIQGLKDFAPGKPLKCVIKHPNGTQETILLNHTFNETQIEWFRAGSALNRMKELQQ
B7: Destrin (protein, UniProt Q9R0P5 1-165)
chain: MASGVQVADEVCRIFYDMKVRKCSTPEEIKKRKKAVIFCLSADKKCIVVEEGKEILVGDVGATITDPFKHFVGMLPEKDCRYALYDASFETKESRKEELMFFLWAPEQAPLKSKMIYASSKDAIKKKFPGIKHEYQANGPEDLNRTCIAEKLGGSLIVAFEGSPV
B8: Histidine triad nucleotide-binding protein 1 (protein, UniProt P70349 1-126)
chain: MADEIAKAQVAQPGGDTIFGKIIRKEIPAKIIFEDDRCLAFHDISPQAPTHFLVIPKKHISQISVADDDDESLLGHLMIVGKKCAADLGLKRGYRMVVNEGADGGQSVYHIHLHVLGGRQMNWPPG

What follows are molecules tested against T1, Sept7 C-terminal tail peptide, residues 416-438, phosphorylated at T426 (assay: affinity purification with mass spectrometry; Sept7 416-438 peptides (pT426 or unphosphorylated) coupled by an N-terminal cysteine to SulfoLink beads, incubated with 100 ul of 0.5 mg/ml P15 mouse brain lysate; washes in 20 mM Tris pH 7.5, 100 mM NaCl, 10 mM MgCl2, 1% Triton X-100, 0.1% deoxycholic acid; label-free quantification, five replicates, phosphorylated against unphosphorylated peptide; only the target purified).

binding, binds:
Glutamine synthetase (from UniProt P15105 1-373) (enzyme)
Myotrophin (from UniProt P62774 1-118)
Profilin-2 (from UniProt Q9JJV2 1-140)
Heterogeneous nuclear ribonucleoprotein A3 (mouse (endogenous in P15 mouse brain))
Nucleolin (from UniProt P09405 1-707)
Fatty acid-binding protein, brain (from UniProt P51880 1-132)
Serine/arginine-rich splicing factor 2 (from UniProt Q62093 1-221)
14-3-3 protein zeta/delta (from UniProt P63101 1-245)
Small nuclear ribonucleoprotein Sm D3 (from UniProt P62320 1-126)
Obg-like ATPase 1 (from UniProt Q9CZ30 1-396) (enzyme)
Eukaryotic translation initiation factor 5A-1; 5A-2 (mouse (endogenous in P15 mouse brain))
Protein SET (from UniProt Q9EQU5 1-289)
Cofilin-1 (from UniProt P18760 1-166)
Creatine kinase B-type (from UniProt Q04447 1-381) (enzyme)
SUMO-conjugating enzyme UBC9 (from UniProt P63280 1-158)
Peptidyl-prolyl cis-trans isomerase A (from UniProt P17742 1-164) (enzyme)
B1
B2
B3
B4
B5
B6
B7
B8
